Values quoted from earlier work in article PMC11944986, “Parenteral Nanoemulsion for Optimized Delivery of GL-II-73 to the Brain—Comparative In Vitro Blood–Brain Barrier and In Vivo Neuropharmacokinetic Evaluation” (Pharmaceutics, 2025).

Tested on: in vitro model of the blood-brain barrier
Conditions: cited from earlier work

Question: With `CN1C(=O)CN=C(c2ccccc2)c2cc(Cl)ccc21` [diazepam] as the molecule, how does the Pe value read?
Answer: Its Pe value is 70 ×10⁻⁶ cm/s.
